{"sequences": {"note": "Protein sequences, listed by entry. Tags and fused reporters are not part of them. Residues count along the entry.", "UniProt P01375, residues 77-233": "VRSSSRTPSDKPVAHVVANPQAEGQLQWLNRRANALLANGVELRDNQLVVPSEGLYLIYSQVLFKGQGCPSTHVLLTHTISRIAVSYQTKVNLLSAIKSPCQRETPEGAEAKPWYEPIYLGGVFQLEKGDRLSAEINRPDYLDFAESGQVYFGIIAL"}, "source": "patent US20110223168A1", "about": "(published 2011)", "binders": {"B1": {"name": "dAb3 monomer (other)", "VL": "DIQMTQSPSSLSASVGDRVTITCRASQSVKEFLWWYQQKPGKAPKLLIYMASNLQSGVPSRFSGSGSGTDFTLTISSLQPEDFATYYCQQKFKLPRTFGQGTKVEIKR", "notes": "Vκ dAb monomer; also called partner dAb in TAR1-5d4"}}, "target": "human TNFα (human, UniProt P01375 77-233)", "assay": "antigen ELISA", "description": "Binding activity of dimeric recombinant proteins was compared to monomer by Protein A/L ELISA or by antigen ELISA. Briefly, a 96 well plate is coated with antigen or Protein A/L overnight at 4° C. The plate washed with 0.05% Tween-PBS, blocked for 2 hrs with 2% Tween-PBS. The sample is added to the plate incubated for 1 hr at room temperature. The plate is washed and incubated with the secondary reagent for 1 hr at room temperature. The plate is washed and developed with TMB substrate. Protein A/L-HRP or India-HRP was used as a secondary reagent.", "note": "Results are given in words; binding and its absence hold for the method and conditions named. Some results given as binding are weak or reduced against the parent protein; the word gives no strength.", "data": [{"binder": "B1", "values": [{"measurement": "binding", "value": "binds"}]}]}
